Measurements reported in patent publication US11197885B2, “Collagen enhancing agent made from low acyl gellan gum, methods of making and methods of using the same” (The University of Toledo, priority 2015, dated 2021).

Test system: pCREB in mouse cortical neurons
Experiment: nuclear pCREB in midi-GAGR-treated mouse cortical neurons pre-treated with signaling inhibitors
Assay type: cell-based
Settings: inhibitor 6 h (SU5402 4 μM, staurosporine 3 nM, U0126 10 μM, LY294002 20 μM, KN-62 10 μM, PF-573228 1 μM), then 1 μM midi-GAGR 48 h
Procedure: To analyze the effect of polysaccharides on neurite outgrowth, primary mouse cortical neurons were treated with vehicle (H2O) or 1 μM of dextran, alginate, or midi-GAGR, 0.01 μM of HA-GAGR, or 0.1 μM of LA-GAGR for 2 days prior to immunocytochemistry using anti-α-tubulin antibody and secondary Alexa488nm antibody. An etched grid coverslip containing 200 numbered boxes was used to select neurons objectively for image acquisition and analysis. A total of 24 boxes were randomly selected per treatment group. All the neurons having total neurite length longer than 4 times of the diameter of neuron cell body were chosen for image analysis. The total length of the neurites of each neuron was measured using Metamorph and used to calculate average total neurite length. […] The intensity of the staining of nuclear pCREB was measured using Metamorph and used to calculate average intensity. In addition, the phosphorylation of CREB in the cytosols of mouse cortical neurons treated with polysaccharides were detected by immunoblotting. […] The protein bands on blots recognized by anti-pCREB (Santa Cruz Biotechnologies) and anti-CREB antibodies were detected on Amersham Hyperfilm™ ECL films (GE Healthcare Life Science) using SuperSignal® West Pico Chemiluminescent Substrate (Thermo Scientific). […]

Structure (SMILES): CN[C@@H]1C[C@H]2O[C@@](C)([C@@H]1OC)n1c3ccccc3c3c4c(c5c6ccccc6n2c5c31)C(=O)NC4 [staurosporine]
- effect of inhibitor pre-treatment on average intensity of pCREB in midi-GAGR-treated neurons: significantly decreased
